For the test, the system named is L1210 leukemia ip in BDF1 mice, survival T/C. Put plainly: NCI In Vivo Anticancer Drug Screen. Data for tumor model L1210 Leukemia (intraperitoneal) in B6D2F1 (BDF1) mice. The note with it: T/C endpoint: mean survival time, higher T/C = longer survival.
The mark [1] stands for this setting: dose: 400.0 mg/kg/injection, schedule: Q01DX001 (ip), vehicle: saline.
The mark [2] stands for this setting: dose: 12.5 mg/kg/injection, schedule: Q01DX009 (ip), vehicle: Klucel (hydroxypropylcellulose) (HPC).
Where [3] appears, read: dose: 100.0 mg/kg/injection, schedule: Q01DX009 (ip), vehicle: Klucel (hydroxypropylcellulose) (HPC).
Setting [4] is: dose: 200.0 mg/kg/injection, schedule: Q01DX009 (ip), vehicle: Klucel (hydroxypropylcellulose) (HPC).
Where [5] appears, read: dose: 400.0 mg/kg/injection, schedule: Q01DX009 (ip), vehicle: Klucel (hydroxypropylcellulose) (HPC).
Setting [6] is: dose: 200.0 mg/kg/injection, schedule: Q01DX001 (ip), vehicle: saline.
Setting [7] is: dose: 200.0 mg/kg/injection, schedule: Q04DX003 (ip), vehicle: saline with Tween-80.
The mark [8] stands for this setting: dose: 400.0 mg/kg/injection, schedule: Q04DX003 (ip), vehicle: saline with Tween-80.
Where [9] appears, read: dose: 400.0 mg/kg/injection, schedule: Q04DX003 (ip), vehicle: Klucel (hydroxypropylcellulose) (HPC).
[10] abbreviates: dose: 400.0 mg/kg/injection, schedule: Q04DX002 (ip), vehicle: saline with Tween-80.
Where [11] appears, read: dose: 100.0 mg/kg/injection, schedule: Q01DX001 (ip), vehicle: carboxymethylcellulose (CMC).
[12] abbreviates: dose: 200.0 mg/kg/injection, schedule: Q01DX001 (ip), vehicle: carboxymethylcellulose (CMC).
Setting [13] is: dose: 100.0 mg/kg/injection, schedule: Q04DX003 (ip), vehicle: saline.
Setting [14] is: dose: 200.0 mg/kg/injection, schedule: Q04DX003 (ip), vehicle: saline.
[15] abbreviates: dose: 400.0 mg/kg/injection, schedule: Q04DX003 (ip), vehicle: saline.
Setting [16] is: dose: 400.0 mg/kg/injection, schedule: Q01DX001 (ip), vehicle: carboxymethylcellulose (CMC).
Where [17] appears, read: dose: 200.0 mg/kg/injection, schedule: Q01DX001 (ip), vehicle: saline with Tween-80.

The list is a part of this screen's results and no random one: it is rich in T/C values a quarter to a half above the control, in often repeated tests (any T/C) and in doses without a T/C. Other doses and runs of a compound stand elsewhere. T/C is the treated group as % of the vehicle group. Some doses have a count of surviving animals in place of a T/C: the source holds a T/C of zero for them, seemingly a mark for toxic or unscored doses. Some doses without a T/C left all or most animals alive at the check, yet need not have been tolerated: the source hardly ever lists a survival T/C far under the control, and the zero likely stands for such cases as well. Survivors were counted at the toxicity check, usually on the fifth day, unless a day is given; later deaths do not show. Schedules are NCI's codes, read here as Q, the interval in days (D) or hours (H), X, the number of doses. Some schedule codes hold Z or #, which are not explained here. Where survival is the endpoint, this PubChem deposit counts one and a half times the control or more as active, and values a quarter to a half above the control carry no call in these data; other NCI protocols may use other cut-offs. Some T/C values are followed by the survivors on the day toxicity was checked, most often the fifth; without a count, all were alive then.

Turning to `O=P(c1ccccc1)(c1ccccc1)c1ccccc1`, the survivor count under setting [1] is 0 of 4.

Turning to `Oc1ccc2ccccc2c1N=Nc1ccc(Cl)cc1`, the survivor count (dose: 400.0 mg/kg/injection, schedule: Q01DX009 (ip), vehicle: carboxymethylcellulose (CMC)) was 6 of 6.

`C1CCC(C2CCCC[N-]2)[N-]C1.[Cl][Cu][Cl]` (stereo not drawn): the survivor count is given as 4 of 6 under setting [2]; 0 of 6 (dose: 25.0 mg/kg/injection, schedule: Q01DX009 (ip), vehicle: Klucel (hydroxypropylcellulose) (HPC)); 0 of 6 (dose: 50.0 mg/kg/injection, schedule: Q01DX009 (ip), vehicle: Klucel (hydroxypropylcellulose) (HPC)); 0 of 6 under setting [3]; 0 of 6 under setting [4]; 0 of 6 under setting [5].

Turning to `CCOC(=O)/C(=C\c1cccc2ccccc12)c1ccncc1`, for the setting “dose: 400.0 mg/kg/injection, schedule: Q01DX009 (ip), vehicle: saline with Tween-80”, the survivor count was 6 of 6.

On to `CCOP(=O)(OCC)Oc1ccc(Sc2ccc(OP(=O)(OCC)OCC)cc2)cc1`, for which the survivor count is reported as 3 of 6 under setting [6] and 0 of 6 under setting [1].

With `O=c1ccc2nc3ccccc3sc-2c1`, the survivor count runs as follows: under setting [7], 5 of 6; under setting [8], 6 of 6.

Consider `CC1c2cc(O)c(O)cc2CCN1C` (stereo not drawn), for which the survivor count (dose: 300.0 mg/kg/injection, schedule: Q01DX001 (ip), vehicle: saline) is recorded as 1 of 6.

As to `Cc1cccc(C)c1N=C=S`, the survivor count was 5 of 6 under setting [7] and 1 of 6 under setting [8].

On to `O=C(/C=C\c1ccc(/C=C/C(=O)Nc2cccc(C3=NCCN3)c2)cc1)Nc1cccc(C2=NCCN2)c1`, for which the T/C (dose: 15.0 mg/kg/injection, schedule: Q01DX Z (ip), vehicle: saline) was 133 % of control. Moreover, the survivor count (dose: 480.0 mg/kg/injection, schedule: Q01DX Z (ip), vehicle: saline) was 3 of 6.

For `O=Nc1ccc(SCC(=O)NNC(=O)CSc2ccc(N=O)cc2[N+](=O)[O-])cc1`, the survivor count was 0 of 3 under setting [7] and 0 of 3 under setting [8].

Consider `CCn1c[n+](-c2ccccc2)cn1`, for which the survivor count is given as 1 of 6 under setting [6] and 0 of 6 under setting [1].

Turning to `CCc1ccc(N2C(N)=NC(N)=NC2(C)C)cc1`, the survivor count is reported as 1 of 6 under setting [6] and 1 of 6 under setting [1].

Consider `Cc1c(Cl)cccc1NC(=O)Nc1ccccc1F`, for which the survivor count was 6 of 6 under setting [3], 6 of 6 under setting [4] and 6 of 6 under setting [5].

Turning to `Cc1cc(C)c(C2CC3CCC2C3)cc1N` (stereo not drawn), the survivor count by setting is: (dose: 100.0 mg/kg/injection, schedule: Q04DX002 (ip), vehicle: saline) 3 of 3; (dose: 400.0 mg/kg/injection, schedule: Q04DX002 (ip), vehicle: saline) 1 of 3; under setting [9], 0 of 6. Further, the T/C (dose: 200.0 mg/kg/injection, schedule: Q04DX003 (ip), vehicle: Klucel (hydroxypropylcellulose) (HPC)) is 139 % of control [5 of 6 alive].

As to `CCN(CCCl)CCCNc1c2ccccc2nc2c1ccc1cccnc12`, the survivor count runs as follows: (dose: 2.5 mg/kg/injection, schedule: Q01DX009 (ip), vehicle: saline) 4 of 6; (dose: 5.0 mg/kg/injection, schedule: Q01DX009 (ip), vehicle: saline) 1 of 6; (dose: 7.5 mg/kg/injection, schedule: Q01DX009 (ip), vehicle: saline) 0 of 6; (dose: 10.0 mg/kg/injection, schedule: Q01DX009 (ip), vehicle: saline) 0 of 6.

Take `CC1CS(=O)(=O)O1` (stereo not drawn): the survivor count under setting [10] is listed as 1 of 3.

With `COC(=O)c1cc(=O)[nH]c2c1c(=O)n(C)c(=O)n2C`, the survivor count under setting [3] is reported as 2 of 6.

Regarding `Cc1cc(C)c(C(=O)c2ccccc2)c(=O)o1`, the survivor count by setting is: (dose: 80.0 mg/kg/injection, schedule: Q01DX001 (ip), vehicle: carboxymethylcellulose (CMC)) 2 of 4; under setting [11], 0 of 4; under setting [12], 0 of 4.

Consider `CCCC[n+]1ccccc1Cc1ccccc1`, for which the survivor count is, setting by setting: (dose: 25.0 mg/kg/injection, schedule: Q04DX003 (ip), vehicle: saline) 3 of 3; under setting [13], 0 of 3; under setting [14], 0 of 3; under setting [15], 0 of 3.

`Cc1cc(=O)oc2c(OS(C)(=O)=O)c(OS(C)(=O)=O)ccc12`: under setting [2], the survivor count is listed as 3 of 3.

Take `CCCN(CCC)CCCCCCO`: under setting [8], the survivor count was 3 of 6.

Take `Cc1ccc2ccccc2c1OC(C)C(=O)O` (stereo not drawn): for the setting “dose: 400.0 mg/kg/injection, schedule: Q04DX003 (ip), vehicle: alcohol”, the survivor count is 4 of 6.

In the case of `NCC(=O)CCS(=O)(=O)c1ccc(Cl)cc1`, the survivor count is, setting by setting: under setting [13], 0 of 6; under setting [14], 1 of 6; under setting [15], 0 of 6.

For `O=C(N/N=C/c1cccc([N+](=O)[O-])c1)c1ccc(O)cc1`, the survivor count (dose: 400.0 mg/kg/injection, schedule: Q04DX002 (ip), vehicle: Klucel (hydroxypropylcellulose) (HPC)) is on record as 3 of 3.

Take `CCCN(CCC)C[Si](C)(C)C`: the survivor count runs as follows: under setting [11], 0 of 4; under setting [12], 0 of 4; under setting [16], 0 of 4.

`O=NN1C(=O)N[C@@H]2[C@H]1CS[C@@H]2CCCCC(=O)O`: the survivor count (dose: 500.0 mg/kg/injection, schedule: Q01DX001 (ip), vehicle: carboxymethylcellulose (CMC)) is recorded as 6 of 6 and the survivor count (dose: 1000.0 mg/kg/injection, schedule: Q01DX001 (ip), vehicle: carboxymethylcellulose (CMC)) is 6 of 6.

Consider `Cc1cc([N+](=O)[O-])cc([N+](=O)[O-])c1Cl`, for which the survivor count by setting is: under setting [4], 0 of 6; under setting [9], 0 of 6.

Turning to `COc1ccc(OC)c(OC)c1CC(C)N` (stereo not drawn), the survivor count (dose: 100.0 mg/kg/injection, schedule: Q01DX009 (ip), vehicle: saline) is recorded as 0 of 3.

`COc1cc(/C=N/NC(=O)C[n+]2ccccc2)cc(OC)c1`: the survivor count is given as 2 of 6 under setting [14] and 0 of 6 under setting [15].

As for `CN(C)c1ccc(/C=N/Nc2nnc(N/N=C/c3ccc(N(C)C)cc3)c3ccccc23)cc1`, under setting [11], the survivor count is listed as 2 of 4.

With `Cc1cc(C)n(CO)n1`, the survivor count under setting [5] is listed as 4 of 6.

For `C=Nc1ccc(Cl)cc1`, the survivor count under setting [16] is recorded as 1 of 4.

As to `NCC(=O)c1ccc(-c2ccccc2)cc1`, under setting [15], the survivor count is given as 2 of 6.

`BrCOCCCCOCBr`: the T/C (dose: 100.0 mg/kg/injection, schedule: Q01DX009 (ip), vehicle: saline with Tween-80) is 126 % of control [2 of 2 alive].

Regarding `CC(C)(C)C1=C(C(C)(C)C)CS(=O)(=O)C1`, the survivor count under setting [17] is 1 of 3 and the survivor count (dose: 400.0 mg/kg/injection, schedule: Q01DX001 (ip), vehicle: saline with Tween-80) is listed as 0 of 3.

Turning to `CSc1ccc(NC(=O)Oc2ccc(C(=O)OCc3ccccc3)cc2)cc1`, under setting [17], the survivor count is given as 6 of 6.

Turning to `O=C(C[n+]1ccc(-c2ccccc2)cc1)c1ccccc1`, the survivor count under setting [15] is on record as 1 of 6.

For the compound `CCC1(c2ccccc2)C(=O)N(CBr)C(=O)N(CBr)C1=O`, the survivor count (dose: 50.0 mg/kg/injection, schedule: Q01DX009 (ip), vehicle: saline with Tween-80) is recorded as 2 of 3; the survivor count (dose: 200.0 mg/kg/injection, schedule: Q01DX009 (ip), vehicle: saline with Tween-80) is on record as 1 of 3; the survivor count under setting [10] is listed as 3 of 3.
